± gives the standard deviation of the averaged measurements. Differences between knockout arms are mostly noise.
Test system: ZR-75-1
Test: relative cell number vs DMSO control (72 h) (% of DMSO); higher = less growth inhibition (more cells)
Experimental: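 QMAP-Seq: a pool of 5 breast cancer cell lines (ZR-75-1, SKBR3, HCC-38, MDA-MB-231, BT-20), each carrying 12 doxycycline-inducible Cas9 sgRNA perturbations (11 knockouts plus non-targeting sgNT), was treated with compounds for 72 h at four 10-fold doses (10 nM-10 uM or 1 nM-1 uM range). Barcodes were amplified and sequenced, and cell number was interpolated from 293T spike-in standard curves. The result is expressed as % of the median of DMSO wells. Two biological replicates.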

[1] = sgRNA knockout: sgATF3, 1000 nM
[2] = sgRNA knockout: sgATF3, 10000 nM
[3] = sgRNA knockout: sgATF4, 1000 nM
[4] = sgRNA knockout: sgATF4, 10000 nM
[5] = sgRNA knockout: sgATF6, 1000 nM
[6] = sgRNA knockout: sgATF6, 10000 nM
[7] = sgRNA knockout: sgATG7, 1000 nM
[8] = sgRNA knockout: sgATG7, 10000 nM
[9] = sgRNA knockout: sgERN1, 1000 nM
[10] = sgRNA knockout: sgERN1, 10000 nM
[11] = sgRNA knockout: sgHSF2, 1000 nM
[12] = sgRNA knockout: sgHSF2, 10000 nM
[13] = sgRNA knockout: sgNFE2L2, 10 nM
[14] = sgRNA knockout: sgNFE2L2, 100 nM
[15] = sgRNA knockout: sgNFE2L2, 1000 nM
[16] = sgRNA knockout: sgNFE2L2, 10000 nM
[17] = sgRNA knockout: sgSLC35F2, 10 nM
[18] = sgRNA knockout: sgSLC35F2, 100 nM
[19] = sgRNA knockout: sgSLC35F2, 1000 nM
[20] = sgRNA knockout: sgSLC35F2, 10000 nM
[21] = sgRNA knockout: sgXBP1, 1000 nM
[22] = sgRNA knockout: sgXBP1, 10000 nM

| SMILES | relative cell number (sgRNA knockout: sgATF3, 10 nM) | relative cell number (sgRNA knockout: sgATF3, 100 nM) | relative cell number [1] | relative cell number [2] | relative cell number (sgRNA knockout: sgATF4, 10 nM) | relative cell number (sgRNA knockout: sgATF4, 100 nM) | relative cell number [3] | relative cell number [4] | relative cell number (sgRNA knockout: sgATF6, 10 nM) | relative cell number (sgRNA knockout: sgATF6, 100 nM) | relative cell number [5] | relative cell number [6] | relative cell number (sgRNA knockout: sgATG7, 10 nM) | relative cell number (sgRNA knockout: sgATG7, 100 nM) | relative cell number [7] | relative cell number [8] | relative cell number (sgRNA knockout: sgERN1, 10 nM) | relative cell number (sgRNA knockout: sgERN1, 100 nM) | relative cell number [9] | relative cell number [10] | relative cell number (sgRNA knockout: sgHSF2, 10 nM) | relative cell number (sgRNA knockout: sgHSF2, 100 nM) | relative cell number [11] | relative cell number [12] | relative cell number [13] | relative cell number [14] | relative cell number [15] | relative cell number [16] | relative cell number [17] | relative cell number [18] | relative cell number [19] | relative cell number [20] | relative cell number (sgRNA knockout: sgXBP1, 10 nM) | relative cell number (sgRNA knockout: sgXBP1, 100 nM) | relative cell number [21] | relative cell number [22] |
| --- | --- | --- | --- | --- | --- | --- | --- | --- | --- | --- | --- | --- | --- | --- | --- | --- | --- | --- | --- | --- | --- | --- | --- | --- | --- | --- | --- | --- | --- | --- | --- | --- | --- | --- | --- | --- |
| COc1cccc2cc(-c3nc([C@H]4CC[C@H](C(=O)O)CC4)n4ncnc(N)c34)[nH]c12 [OSI027] | 107 ± 34 | 74.8 ± 2.4 | 59.3 ± 9.6 | 29.3 ± 1.5 | 109 ± 24 | 161 ± 54 | 73.9 ± 5 | 33.1 ± 15 | 68.6 ± 3.5 | 109 ± 22 | 56.9 ± 12 | 22.2 ± 6.5 | 72.6 ± 24 | 130 ± 14 | 60.3 ± 35 | 17.1 ± 2.6 | 84.5 ± 3.1 | 115 ± 42 | 66.8 ± 16 | 37.9 ± 3.9 | 104 ± 12 | 99.6 ± 31 | 59.2 ± 1.7 | 27.5 ± 5.1 | 107 ± 22 | 109 ± 15 | 69.1 ± 19 | 29.8 ± 4.2 | 90.8 ± 33 | 105 ± 56 | 40 ± 11 | 33.2 ± 6.1 | 95.033 ± 0.085 | 106 ± 8.3 | 73.2 ± 19 | 28 ± 4 |
| Cc1ccc(NC(=O)c2ccc(CN3CCN(C)CC3)cc2)cc1Nc1nc(-c2cccnc2)cs1 [Masitinib] | 124 ± 8.4 | 91.6 ± 7.6 | 93.9 ± 14 | 31.7 ± 2.1 | 78.3 ± 20 | 89.5 ± 10 | 84.7 ± 5.9 | 29.7 ± 2 | 86.5 ± 5.6 | 108 ± 30 | 81 ± 6.3 | 21.7 ± 6.9 | 86.5 ± 20 | 124 ± 41 | 65.3 ± 7.2 | 20.5 ± 3.1 | 93.7 ± 8.5 | 84.8 ± 9 | 67.6 ± 31 | 27 ± 2 | 103 ± 23 | 95.8 ± 1.3 | 96.1 ± 2.4 | 27 ± 1.1 | 77.3 ± 18 | 84.1 ± 9 | 89.7 ± 20 | 20.2 ± 5.9 | 108 ± 16 | 73.4 ± 5.3 | 85 ± 28 | 17.7 ± 2.7 | 95.4 ± 7.3 | 73.6 ± 9.2 | 69.7 ± 18 | 24.6 ± 4.8 |
| Cc1sc2c(c1C)C(c1ccc(Cl)cc1)=N[C@@H](CC(=O)OC(C)(C)C)c1nnc(C)n1-2 [(+)-JQ1] | 105 ± 34 | 132 ± 64 | 94.9 ± 11 | 95.4 ± 32 | 61.6 ± 3.7 | 151 ± 89 | 112 ± 11 | 50.7 ± 2.2 | 92.7 ± 6.3 | 89.6 ± 3.5 | 67.6 ± 22 | 47.5 ± 20 | 105 ± 22 | 95.8 ± 16 | 87.6 ± 16 | 70 ± 6.2 | 97 ± 2.5 | 139 ± 35 | 121 ± 23 | 67.6 ± 14 | 102 ± 0.45 | 131 ± 54 | 103 ± 5 | 80.4 ± 3.3 | 112 ± 5.2 | 96.5 ± 13 | 94.2 ± 20 | 84.2 ± 5.2 | 83.7 ± 53 | 131 ± 62 | 87.4 ± 40 | 77.4 ± 1.2 | 114 ± 18 | 104 ± 11 | 102 ± 1.8 | 76.8 ± 11 |
| COc1cc2c(Oc3ccc4[nH]c(C)cc4c3F)ncnc2cc1OCCCN1CCCC1 [Cediranib] | 88.8 ± 20 | 90.1 ± 8.1 | 97.5 ± 4.8 | 17.4 ± 4.4 | 127 ± 21 | 138 ± 66 | 104 ± 25 | 12.3 ± 0.14 | 93.5 ± 12 | 108 ± 10 | 85.7 ± 2.5 | 7.18 ± 1 | 83 ± 0.97 | 79.2 ± 32 | 90.1 ± 14 | 16.5 ± 2.8 | 122 ± 1.9 | 95 ± 26 | 76.1 ± 29 | 13 ± 3.1 | 75.5 ± 15 | 78 ± 17 | 97 ± 24 | 13.1 ± 2.2 | 93.7 ± 1 | 93.8 ± 2.6 | 83.1 ± 7.5 | 18.2 ± 4.5 | 136 ± 2.5 | 149 ± 18 | 141 ± 19 | 16.3 ± 7.1 | 89 ± 2.5 | 88.5 ± 24 | 65.5 ± 11 | 14.3 ± 0.44 |
| CC(=O)O[C@H]1C(=O)[C@@]2(C)[C@H]([C@H](OC(=O)c3ccccc3)[C@]3(O)C[C@H](OC(=O)[C@H](O)[C@@H](NC(=O)c4ccccc4)c4ccccc4)C(C)=C1C3(C)C)[C@]1(OC(C)=O)CO[C@@H]1C[C@@H]2O [Paclitaxel] | 39.3 ± 6.9 | 20.9 ± 13 | 32.1 ± 2.6 | 50.4 ± 20 | 48.1 ± 30 | 30.1 ± 17 | 46.4 ± 4.9 | 52.8 ± 17 | 39.6 ± 17 | 28.9 ± 15 | 33.1 ± 24 | 51.4 ± 15 | 29.3 ± 3.8 | 31.5 ± 12 | 22 ± 7.8 | 47.3 ± 5.2 | 51.6 ± 5.5 | 28.5 ± 2.8 | 28.5 ± 4.5 | 53 ± 8.6 | 41.8 ± 2.6 | 23.9 ± 5.5 | 27.2 ± 8.6 | 34.2 ± 1.9 | 30 ± 12 | 23.4 ± 13 | 32.4 ± 7.7 | 39.1 ± 14 | 53.5 ± 46 | 36.8 ± 23 | 24 ± 16 | 42.7 ± 11 | 33.8 ± 2.5 | 28.6 ± 11 | 28.3 ± 2.1 | 31.8 ± 4.7 |
| COc1cc2nccc(Oc3ccc(NC(=O)Nc4cc(C)on4)c(Cl)c3)c2cc1OC [Tivozanib] | 82.3 ± 43 | 98.2 ± 23 | 95 ± 4.6 | 54.8 ± 26 | 117 ± 17 | 109 ± 16 | 86.2 ± 12 | 43.1 ± 3.4 | 107 ± 50 | 79.79 ± 0.33 | 122 ± 26 | 39 ± 16 | 84.3 ± 33 | 109 ± 2.5 | 72.4 ± 14 | 38.1 ± 4 | 84.3 ± 23 | 97.864 ± 0.054 | 83.6 ± 22 | 53.8 ± 1.9 | 126 ± 7.7 | 115 ± 21 | 102 ± 15 | 43.2 ± 11 | 104 ± 16 | 113 ± 14 | 120 ± 6.7 | 39.2 ± 4.4 | 82 ± 38 | 108 ± 1.1 | 102 ± 18 | 41.1 ± 24 | 110 ± 31 | 98.1 ± 3.3 | 108 ± 7.2 | 42.5 ± 4.5 |
| CN/C(=N\CCSCc1nc[nH]c1C)NC#N [Cimetidine] | 121 ± 12 | 103 ± 41 | 115 ± 22 | 138 ± 10 | 146 ± 72 | 114 ± 35 | 102 ± 25 | 108 ± 4.8 | 110 ± 27 | 134 ± 5.2 | 112 ± 41 | 166 ± 41 | 158 ± 8.3 | 98.8 ± 6.7 | 121 ± 22 | 118 ± 15 | 96.4 ± 12 | 109.5 ± 0.87 | 97.6 ± 8.7 | 106 ± 34 | 116.3 ± 0.73 | 99.6 ± 14 | 93 ± 23 | 110 ± 25 | 120 ± 14 | 120 ± 62 | 114 ± 13 | 117 ± 20 | 115 ± 35 | 125 ± 32 | 78.2 ± 6.4 | 122 ± 26 | 101 ± 24 | 116 ± 25 | 95 ± 7.2 | 107 ± 27 |

From the supplement of paper PMC7661543
